Measured values taken from patent US20230065371A1, “PROCESS FOR MANUFACTURING SOLID NEUTRAL AMINO ACID SALTS OF POLYUNSATURATED FATTY ACIDS” (SILICYCLE INC., priority 2020, published 2023).
For at least one compound, name, drawing or mass did not settle the structure. Some of these results come from one statement about several compounds together.

Experiment: Oxidative status / stability (PV, AV, Totox; CDR FoodLab Junior analyzer), storage with closed lids at room temperature
Type: physicochemical
Method: The final product in powder form is isolated by evaporating said first and second organic solvents and water from the reaction mixture to recover said basic amino acid salts of PUFAs. Preferably, said evaporation step is carried under reduced pressure between about 0° C.-70° C. depending on the properties of the equipment used. The oxidative status of the obtained final product described herein is quantified by peroxide value (PV), anisidine value (AV) and Totox value. PV is a measure of the level of the primary oxidation products (lipid hydroperoxides) in the product, which is specified in milliequivalents O2 per kg of sample, while the AV is an unspecific measure of saturated and unsaturated carbonyl compounds. Totox is calculated by the equation Totox=2*PV+AV.
The comparison of oxidative status of amino acid salts of omega-3, starting material in ester form and fish oil in free acid form are assessed by measuring the PV and AV, then all the samples are subjected to the same oxidizing condition over a certain period of time, followed by the measuring PV and AV of the samples. The oxidizing conditions are selected from one of them as below: 1) Storage in closed containers at atmospheric condition for 7 months; or 2) Storage in loose closed containers exposed to air at 40° C. for 1 month.
Food Lab Analyzer: Among several techniques known in the art for determining the oxidative levels of a sample. The CDR FoodLab® Junior analyzer is used herein for determining PV and AV. The procedures are as described below:
The solid product 0.5 g was dissolved in 2 ml of MeOH and HCl solution with the ratio of 1:10 (v/v). The mixture was stirred for 5 minutes, followed by the addition of 5 ml of water. The mixture was extracted with 3 ml of hexane containing 100 ppm butylhydroxytoluene (BHT). The organic layer was dried over MgSO4, filtrated and evaporated under reduced pressure at the temperature of 0-70° C. to get the fish oil in free acid form, which is evaluated with the CDR FoodLab® Junior analyzer to get anisidine and peroxide values using the CDR FoodLab® Junior analyzer.
The molar ratio of EPA, NaOH and glycine was 1:1:1. The mixture was stirred at atmospheric condition (i.e. atmospheric pressure and room temperature) for 5 minutes to obtain a suspension solution. 100 mL of acetonitrile was added to further precipitate the glycine salt. […] About 8 g of EPA-gly was stored in a 20 ml of clear vial with a diameter of 27 mm, which was placed with closed lids on the bench at room temperature for the stability examination for 60 days.

[1] = oil / fatty acid used as starting material or obtained in free acid form

## CC/C=C\C/C=C\C/C=C\C/C=C\C/C=C\C/C=C\CCC(=O)O [DHA-OH, docosahexaenoic acid, reference compound]
Table 1, starting material
  AV: >100 A/g
  PV: >50 meq O2/Kg
[1]
  AV: > 100 A/g
  PV: > 50 meqO2/kg

## CC/C=C\C/C=C\C/C=C\C/C=C\C/C=C\C/C=C\CCC(=O)O.NCC(=O)O [DHA-gly, glycine salt of docosahexaenoic acid]
Salt as generated, after roughing pump for 1 day
  AV: > 100 A/g

## CC/C=C\C/C=C\C/C=C\C/C=C\C/C=C\CCCC(=O)O [EPA-OH, eicosapentaenoic acid, reference compound]
Table 1, starting material
  AV: >100 A/g
  PV: >50 meq O2/Kg
[1]
  AV: > 100 A/g
  PV: > 50 meqO2/kg
